Measurements as given in the supplement of paper PMC10849652.
The other results are listed elsewhere or left out.

The chains behind the UniProt entries cited, without tags or fusion partners. Where a name states a change or a piece, a line headed by the entry shows the natural chain unless it says otherwise.
UniProt P48681: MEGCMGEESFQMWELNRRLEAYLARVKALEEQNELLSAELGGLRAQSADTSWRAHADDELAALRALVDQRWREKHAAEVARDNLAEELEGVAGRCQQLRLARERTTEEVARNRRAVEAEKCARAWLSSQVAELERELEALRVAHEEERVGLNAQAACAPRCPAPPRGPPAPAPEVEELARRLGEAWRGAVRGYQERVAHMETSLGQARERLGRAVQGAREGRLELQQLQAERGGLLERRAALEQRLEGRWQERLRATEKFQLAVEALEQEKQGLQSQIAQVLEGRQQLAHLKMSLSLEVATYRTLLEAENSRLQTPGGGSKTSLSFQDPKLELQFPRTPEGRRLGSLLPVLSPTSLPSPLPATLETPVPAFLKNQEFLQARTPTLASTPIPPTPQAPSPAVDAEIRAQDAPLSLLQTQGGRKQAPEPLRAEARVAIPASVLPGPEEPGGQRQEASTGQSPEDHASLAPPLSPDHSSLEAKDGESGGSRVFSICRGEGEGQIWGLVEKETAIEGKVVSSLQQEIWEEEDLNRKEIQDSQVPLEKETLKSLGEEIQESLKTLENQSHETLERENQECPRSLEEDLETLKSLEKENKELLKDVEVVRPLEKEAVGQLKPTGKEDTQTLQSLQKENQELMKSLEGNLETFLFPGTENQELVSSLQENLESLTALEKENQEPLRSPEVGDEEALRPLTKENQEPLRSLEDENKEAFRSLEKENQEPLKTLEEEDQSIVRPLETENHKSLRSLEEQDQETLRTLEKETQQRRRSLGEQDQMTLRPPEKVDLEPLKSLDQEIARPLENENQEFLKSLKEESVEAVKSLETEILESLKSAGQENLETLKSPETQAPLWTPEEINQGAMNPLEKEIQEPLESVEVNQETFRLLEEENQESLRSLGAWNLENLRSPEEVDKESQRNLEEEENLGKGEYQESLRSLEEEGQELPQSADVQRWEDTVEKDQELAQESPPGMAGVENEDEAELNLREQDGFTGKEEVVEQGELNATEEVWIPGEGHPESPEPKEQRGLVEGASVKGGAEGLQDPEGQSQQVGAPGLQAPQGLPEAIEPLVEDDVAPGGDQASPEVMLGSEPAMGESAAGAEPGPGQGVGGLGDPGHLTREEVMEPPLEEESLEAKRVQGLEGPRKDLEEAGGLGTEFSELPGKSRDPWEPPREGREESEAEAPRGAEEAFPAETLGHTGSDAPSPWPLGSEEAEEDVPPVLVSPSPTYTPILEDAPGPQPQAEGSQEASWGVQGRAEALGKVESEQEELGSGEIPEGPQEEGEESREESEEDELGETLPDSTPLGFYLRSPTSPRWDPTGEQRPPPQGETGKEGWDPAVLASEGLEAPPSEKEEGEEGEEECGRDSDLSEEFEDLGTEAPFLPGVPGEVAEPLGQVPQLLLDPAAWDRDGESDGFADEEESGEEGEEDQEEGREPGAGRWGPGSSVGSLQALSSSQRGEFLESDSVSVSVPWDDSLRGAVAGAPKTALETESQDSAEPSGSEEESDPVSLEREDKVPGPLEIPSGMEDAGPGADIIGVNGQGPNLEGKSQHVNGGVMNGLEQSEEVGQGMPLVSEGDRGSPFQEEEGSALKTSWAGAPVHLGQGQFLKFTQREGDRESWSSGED
UniProt P61916: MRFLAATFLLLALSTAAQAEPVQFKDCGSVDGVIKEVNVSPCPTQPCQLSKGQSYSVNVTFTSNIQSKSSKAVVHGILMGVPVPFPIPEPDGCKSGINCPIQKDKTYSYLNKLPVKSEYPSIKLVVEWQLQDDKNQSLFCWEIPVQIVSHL
UniProt Q8TAT6: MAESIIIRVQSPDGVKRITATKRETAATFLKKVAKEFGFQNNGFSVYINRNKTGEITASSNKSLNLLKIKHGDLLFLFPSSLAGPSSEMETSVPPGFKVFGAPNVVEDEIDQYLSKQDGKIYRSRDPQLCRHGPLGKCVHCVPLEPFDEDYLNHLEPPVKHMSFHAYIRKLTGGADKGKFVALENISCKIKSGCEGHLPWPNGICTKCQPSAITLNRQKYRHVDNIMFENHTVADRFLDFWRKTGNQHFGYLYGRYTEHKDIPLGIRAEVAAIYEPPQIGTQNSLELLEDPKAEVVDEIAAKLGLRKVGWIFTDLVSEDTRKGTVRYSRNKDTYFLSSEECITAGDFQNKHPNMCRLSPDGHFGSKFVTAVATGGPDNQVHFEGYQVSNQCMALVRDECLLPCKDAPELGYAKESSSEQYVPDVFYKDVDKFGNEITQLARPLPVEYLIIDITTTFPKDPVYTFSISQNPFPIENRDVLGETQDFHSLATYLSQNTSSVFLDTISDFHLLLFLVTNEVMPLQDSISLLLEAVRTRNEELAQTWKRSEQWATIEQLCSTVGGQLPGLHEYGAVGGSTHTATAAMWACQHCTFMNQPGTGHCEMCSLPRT
UniProt Q9Y239: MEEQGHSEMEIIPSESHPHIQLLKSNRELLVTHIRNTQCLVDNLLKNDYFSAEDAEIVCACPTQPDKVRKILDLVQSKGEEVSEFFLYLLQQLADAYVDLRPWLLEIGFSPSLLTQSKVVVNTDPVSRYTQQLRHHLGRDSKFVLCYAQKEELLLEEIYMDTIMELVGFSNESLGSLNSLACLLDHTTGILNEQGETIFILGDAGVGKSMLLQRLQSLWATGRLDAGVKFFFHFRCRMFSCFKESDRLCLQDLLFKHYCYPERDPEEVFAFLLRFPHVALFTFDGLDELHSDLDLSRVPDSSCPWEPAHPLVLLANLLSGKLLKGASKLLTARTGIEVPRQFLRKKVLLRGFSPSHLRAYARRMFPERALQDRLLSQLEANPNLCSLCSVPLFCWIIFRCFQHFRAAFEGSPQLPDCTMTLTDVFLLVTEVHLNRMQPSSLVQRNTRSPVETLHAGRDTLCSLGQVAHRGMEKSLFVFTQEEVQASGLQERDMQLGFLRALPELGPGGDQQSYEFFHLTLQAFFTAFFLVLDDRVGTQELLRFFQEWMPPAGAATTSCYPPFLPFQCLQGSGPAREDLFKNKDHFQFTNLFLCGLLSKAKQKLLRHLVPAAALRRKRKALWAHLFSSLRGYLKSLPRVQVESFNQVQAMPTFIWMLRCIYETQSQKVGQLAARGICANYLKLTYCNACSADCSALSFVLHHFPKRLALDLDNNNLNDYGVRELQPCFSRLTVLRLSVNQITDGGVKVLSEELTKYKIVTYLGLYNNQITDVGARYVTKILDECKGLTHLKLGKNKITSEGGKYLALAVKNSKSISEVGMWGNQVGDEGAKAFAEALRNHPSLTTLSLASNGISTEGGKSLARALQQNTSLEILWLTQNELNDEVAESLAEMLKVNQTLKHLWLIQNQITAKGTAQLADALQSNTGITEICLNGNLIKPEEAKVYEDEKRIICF
UniProt Q14978: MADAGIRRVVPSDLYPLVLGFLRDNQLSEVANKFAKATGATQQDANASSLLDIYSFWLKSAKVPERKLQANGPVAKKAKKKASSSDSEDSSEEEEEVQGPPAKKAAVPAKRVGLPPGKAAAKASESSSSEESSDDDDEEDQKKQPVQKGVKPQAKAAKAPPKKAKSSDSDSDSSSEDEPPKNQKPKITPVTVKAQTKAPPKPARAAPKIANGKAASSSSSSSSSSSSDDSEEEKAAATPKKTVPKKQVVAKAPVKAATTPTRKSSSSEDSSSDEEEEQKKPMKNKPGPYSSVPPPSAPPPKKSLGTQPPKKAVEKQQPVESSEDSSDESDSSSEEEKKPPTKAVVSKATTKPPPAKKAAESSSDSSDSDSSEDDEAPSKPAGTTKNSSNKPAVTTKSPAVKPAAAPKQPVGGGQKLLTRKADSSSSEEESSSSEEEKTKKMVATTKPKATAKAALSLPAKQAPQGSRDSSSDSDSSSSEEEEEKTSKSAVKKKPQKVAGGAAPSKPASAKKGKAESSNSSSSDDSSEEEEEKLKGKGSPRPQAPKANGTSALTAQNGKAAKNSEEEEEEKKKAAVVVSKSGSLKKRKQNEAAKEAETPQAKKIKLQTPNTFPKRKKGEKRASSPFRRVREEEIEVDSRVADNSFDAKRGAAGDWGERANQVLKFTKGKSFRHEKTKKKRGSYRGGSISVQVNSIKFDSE
UniProt Q96JN8: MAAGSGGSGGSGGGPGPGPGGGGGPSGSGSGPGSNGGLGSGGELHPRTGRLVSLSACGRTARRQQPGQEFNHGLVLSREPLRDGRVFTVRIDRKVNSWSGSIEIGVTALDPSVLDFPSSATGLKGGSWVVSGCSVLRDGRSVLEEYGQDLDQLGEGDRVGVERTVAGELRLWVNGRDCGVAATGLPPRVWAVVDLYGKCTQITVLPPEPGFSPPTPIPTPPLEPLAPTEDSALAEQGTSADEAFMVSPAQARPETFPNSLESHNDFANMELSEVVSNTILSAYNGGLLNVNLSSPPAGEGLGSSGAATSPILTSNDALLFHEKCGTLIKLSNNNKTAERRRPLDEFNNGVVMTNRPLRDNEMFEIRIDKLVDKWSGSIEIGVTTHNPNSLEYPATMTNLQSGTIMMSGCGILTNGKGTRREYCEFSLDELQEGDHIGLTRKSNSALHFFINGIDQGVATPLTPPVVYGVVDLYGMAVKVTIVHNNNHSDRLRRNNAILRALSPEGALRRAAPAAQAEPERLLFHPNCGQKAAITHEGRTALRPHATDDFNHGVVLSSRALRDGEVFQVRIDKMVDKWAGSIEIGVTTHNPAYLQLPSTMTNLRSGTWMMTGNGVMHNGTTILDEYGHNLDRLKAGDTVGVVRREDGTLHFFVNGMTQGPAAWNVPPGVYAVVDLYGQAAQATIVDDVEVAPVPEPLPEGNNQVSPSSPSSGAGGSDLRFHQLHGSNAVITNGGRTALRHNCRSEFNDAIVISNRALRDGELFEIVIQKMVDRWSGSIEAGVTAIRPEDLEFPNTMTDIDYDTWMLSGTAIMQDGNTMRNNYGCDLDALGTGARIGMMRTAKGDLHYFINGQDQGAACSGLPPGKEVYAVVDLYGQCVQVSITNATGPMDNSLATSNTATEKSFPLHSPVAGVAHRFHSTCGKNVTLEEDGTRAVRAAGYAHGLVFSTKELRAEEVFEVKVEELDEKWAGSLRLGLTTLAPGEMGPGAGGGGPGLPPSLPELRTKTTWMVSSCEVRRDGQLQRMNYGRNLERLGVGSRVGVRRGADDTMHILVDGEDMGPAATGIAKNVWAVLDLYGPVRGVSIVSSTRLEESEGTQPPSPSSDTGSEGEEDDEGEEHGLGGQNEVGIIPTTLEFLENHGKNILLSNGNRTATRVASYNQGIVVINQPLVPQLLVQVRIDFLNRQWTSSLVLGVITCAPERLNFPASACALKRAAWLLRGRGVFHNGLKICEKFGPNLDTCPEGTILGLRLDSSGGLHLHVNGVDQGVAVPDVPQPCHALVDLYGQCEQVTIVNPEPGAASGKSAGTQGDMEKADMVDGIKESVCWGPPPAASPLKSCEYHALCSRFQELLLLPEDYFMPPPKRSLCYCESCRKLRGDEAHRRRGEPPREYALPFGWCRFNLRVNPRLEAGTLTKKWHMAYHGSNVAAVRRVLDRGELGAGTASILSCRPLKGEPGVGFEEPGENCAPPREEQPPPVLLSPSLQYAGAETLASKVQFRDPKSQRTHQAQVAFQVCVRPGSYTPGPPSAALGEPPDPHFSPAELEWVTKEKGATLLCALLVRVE
UniProt O60936: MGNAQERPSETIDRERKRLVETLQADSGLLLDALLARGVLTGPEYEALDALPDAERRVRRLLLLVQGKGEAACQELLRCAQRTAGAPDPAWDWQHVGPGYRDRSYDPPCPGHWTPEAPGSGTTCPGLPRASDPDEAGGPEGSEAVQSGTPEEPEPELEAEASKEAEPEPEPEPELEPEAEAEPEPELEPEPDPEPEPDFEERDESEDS
UniProt Q9HAN9, whole entry, looked up: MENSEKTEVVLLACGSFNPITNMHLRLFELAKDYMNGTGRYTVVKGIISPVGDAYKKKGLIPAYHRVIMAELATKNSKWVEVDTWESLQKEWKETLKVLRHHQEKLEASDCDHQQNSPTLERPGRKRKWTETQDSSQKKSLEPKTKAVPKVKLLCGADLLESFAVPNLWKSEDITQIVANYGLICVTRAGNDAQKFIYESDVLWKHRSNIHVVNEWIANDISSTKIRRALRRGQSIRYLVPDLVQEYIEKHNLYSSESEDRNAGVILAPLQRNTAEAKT
UniProt P51956: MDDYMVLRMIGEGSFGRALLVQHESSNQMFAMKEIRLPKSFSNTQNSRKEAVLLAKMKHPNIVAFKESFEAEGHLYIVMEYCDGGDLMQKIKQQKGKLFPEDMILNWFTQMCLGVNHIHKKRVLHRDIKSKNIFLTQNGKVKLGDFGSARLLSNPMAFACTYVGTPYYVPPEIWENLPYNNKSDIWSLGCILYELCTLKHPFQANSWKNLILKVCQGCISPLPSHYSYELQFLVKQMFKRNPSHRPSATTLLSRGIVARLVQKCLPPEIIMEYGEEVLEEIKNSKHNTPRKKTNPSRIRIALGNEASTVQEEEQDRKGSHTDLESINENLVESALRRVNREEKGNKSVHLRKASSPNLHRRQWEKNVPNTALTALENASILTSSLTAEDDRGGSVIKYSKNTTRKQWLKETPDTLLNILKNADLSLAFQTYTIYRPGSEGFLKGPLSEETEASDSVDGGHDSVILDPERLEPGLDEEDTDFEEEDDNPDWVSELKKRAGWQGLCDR

Legend:
Assay in all cases: log2 fold change, soluble protein after heating vs DMSO (PISA); higher = thermal stabilisation; K562 cells, 10 uM, 30 min; active = over 0.2 and 3.5 SD of the protein, either way, in both replicates (recomputed)
saracatinib = compound: CN1CCN(CCOc2cc(OC3CCOCC3)c3c(Nc4c(Cl)ccc5c4OCO5)ncnc3c2)CC1 [saracatinib]
In short: (§1)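 K562 cells (2×10^6 cells/mL) were treated with 10 μM compound for 30 min, and aliquots were heated for 3 min over 48°C-58°C. Pooled aliquots were extracted in PBS with 0.5% NP-40 at 4°C, and the supernatant after 21,000xg for 90 min was measured by TMTpro 16plex LC-MS/MS with channel sums equalised. Reported thermal stability, relative to control samples and from duplicates, is a log2 fold change.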

sotrastaurin = compound: CN1CCN(c2nc(C3=C(c4c[nH]c5ccccc45)C(=O)NC3=O)c3ccccc3n2)CC1 [sotrastaurin]
In short: as §1

alvocidib = compound: CN1CC[C@H](c2c(O)cc(O)c3c(=O)cc(-c4ccccc4Cl)oc23)[C@H](O)C1 [alvocidib]
In short: as §1

Tubastatin A = compound: CN1CCc2c(c3ccccc3n2Cc2ccc(C(=O)NO)cc2)C1 [Tubastatin A]
In short: as §1

[1] = compound: CNC(=O)C1=CC=CC=C1NC2=NC(=NC=C2Cl)NC3=C(C=C(C=C3)N4CCOCC4)OC
In short: as §1

defactinib = compound: CNC(=O)c1ccc(Nc2ncc(C(F)(F)F)c(NCc3nccnc3N(C)S(C)(=O)=O)n2)cc1 [defactinib]
In short: as §1

rucaparib = compound: CNCc1ccc(-c2[nH]c3cc(F)cc4c3c2CCNC4=O)cc1 [rucaparib]
In short: as §1

[2] = compound: CNc1nc(-c2ccc3c(N)n[nH]c3c2)cc(N2C[C@@H](C(=O)NC3CCCCC3)CC[C@H]2C)n1
In short: as §1

encorafenib = compound: COC(=O)N[C@@H](C)CNc1nccc(-c2cn(C(C)C)nc2-c2cc(Cl)cc(NS(C)(=O)=O)c2F)n1 [encorafenib]
In short: as §1

[3] = compound: COC(=O)[C@H](CCSC)NC(=O)C1=C(C=C(C=C1)NC[C@H](CS)N)C2=CC=CC=C2
In short: as §1

[4] = compound: COC1=CC=C(C=C1)CN2C=CC3=C2C=C(C=C3)C(=O)NO
In short: as §1

filanesib = compound: CON(C)C(=O)N1N=C(c2cc(F)ccc2F)S[C@@]1(CCCN)c1ccccc1 [filanesib]
In short: as §1

zotarolimus = compound: CO[C@H]1C[C@@H]2CC[C@@H](C)[C@@](O)(O2)C(=O)C(=O)N2CCCC[C@H]2C(=O)O[C@H]([C@H](C)C[C@@H]2CC[C@H](n3cnnn3)[C@H](OC)C2)CC(=O)[C@H](C)/C=C(\C)[C@@H](O)[C@@H](OC)C(=O)[C@H](C)C[C@H](C)/C=C/C=C/C=C/1C [zotarolimus]
In short: as §1

idasanutlin = compound: COc1cc(C(=O)O)ccc1NC(=O)[C@@H]1N[C@@H](CC(C)(C)C)[C@](C#N)(c2ccc(Cl)cc2F)[C@H]1c1cccc(Cl)c1F [idasanutlin]
In short: as §1

alisertib = compound: COc1cc(Nc2ncc3c(n2)-c2ccc(Cl)cc2C(c2c(F)cccc2OC)=NC3)ccc1C(=O)O [alisertib]
In short: as §1

[5] = compound: COc1cc2nc(-c3cc(F)ccc3O)nc(N[C@@H]3CNC[C@H]3C(C)(C)O)c2cc1OC
In short: as §1

gefitinib = compound: COc1cc2ncnc(Nc3ccc(F)c(Cl)c3)c2cc1OCCCN1CCOCC1 [gefitinib]
In short: as §1

[6] = compound: COc1cccc2cc(-c3nc([C@H]4CC[C@H](C(=O)O)CC4)n4ncnc(N)c34)[nH]c12
In short: as §1

lapatinib = compound: CS(=O)(=O)CCNCc1ccc(-c2ccc3ncnc(Nc4ccc(OCc5cccc(F)c5)c(Cl)c4)c3c2)o1 [lapatinib]
In short: as §1

pictilisib = compound: CS(=O)(=O)N1CCN(Cc2cc3nc(-c4cccc5[nH]ncc45)nc(N4CCOCC4)c3s2)CC1 [pictilisib]
In short: as §1

Row | Target | log2 fold change (saracatinib) | log2 fold change (sotrastaurin) | log2 fold change (alvocidib) | log2 fold change (Tubastatin A) | log2 fold change [1] | log2 fold change (defactinib) | log2 fold change (rucaparib) | log2 fold change [2] | log2 fold change (encorafenib) | log2 fold change [3] | log2 fold change [4] | log2 fold change (filanesib) | log2 fold change (zotarolimus) | log2 fold change (idasanutlin) | log2 fold change (alisertib) | log2 fold change [5] | log2 fold change (gefitinib) | log2 fold change [6] | log2 fold change (lapatinib) | log2 fold change (pictilisib)
1 | NLRP2 (UniProt Q9NX02) | inactive: -0.025 | inactive: -0.117 | inactive: -0.002 | inactive: 0.002 | inactive: -0.015 | inactive: -0.002 | inactive: 0.215 | inactive: 0.03 | inactive: 0.088 | inactive: -0.102 | inactive: -0.015 | inactive: 0.121 | inactive: 0.017 | inactive: -0.007 | inactive: 0.003 | inactive: -0.006 | inactive: 0.058 | inactive: -0.108 | inactive: 0.02 | inactive: 0.056
2 | NF1 (UniProt P21359) | inactive: -0.124 | inactive: 0.103 | inactive: 0.039 | inactive: 0.078 | inactive: 0.003 | inactive: 0.016 | inactive: -0.052 | inactive: -0.044 | inactive: -0.205 | inactive: -0.035 | inactive: -0.278 | inactive: 0.171 | inactive: -0.12 | inactive: -0.074 | inactive: 0.09 | inactive: 0.245 | inactive: 0.046 | inactive: 0.006 | inactive: -0.327 | inactive: 0.163
3 | NES (UniProt P48681) | inactive: -0.055 | inactive: 0 | inactive: 0.059 | inactive: 0.034 | inactive: 0.005 | inactive: 0.281 | inactive: 0.194 | inactive: -0.05 | inactive: 0.09 | inactive: -0.061 | inactive: 0.009 | inactive: 0.299 | inactive: -0.019 | inactive: 0.192 | inactive: -0.103 | inactive: -0.134 |  | inactive: -0.068 | inactive: -0.029 | inactive: 0.017
4 | NPC2 (UniProt P61916) | inactive: 0.065 | inactive: 0.01 | inactive: -0.007 | inactive: -0.091 | inactive: 0.139 | inactive: 0.044 | inactive: -0.163 | inactive: 0.004 | inactive: 0 | inactive: 0.102 | inactive: 0.04 | inactive: -0.09 | inactive: -0.059 | inactive: 0.018 | inactive: 0.028 | inactive: -0.002 | inactive: 0.031 | inactive: -0.028 | inactive: -0.02 | inactive: -0.042
5 | NOMO1 (UniProt Q15155) | inactive: -0.067 | inactive: 0.009 | inactive: 0.086 | inactive: 0.016 | inactive: -0.168 | inactive: -0.124 | inactive: 0.035 | inactive: -0.084 | inactive: -0.083 | inactive: 0.019 | inactive: -0.029 | inactive: 0.121 | inactive: -0.169 | inactive: 0 |  | inactive: -0.049 | inactive: 0.029 |  | inactive: 0.019 | inactive: -0.006
6 | NPLOC4 isoform 2 (UniProt Q8TAT6) | inactive: 0.041 | inactive: 0.024 | inactive: 0 | inactive: -0.01 | inactive: -0.043 | inactive: 0.008 | inactive: -0.013 | inactive: 0.008 | inactive: -0.004 | inactive: 0.046 | inactive: 0.055 | inactive: -0.067 | inactive: -0.036 | inactive: -0.063 | inactive: -0.086 | inactive: 0.027 | inactive: 0.025 | inactive: 0.019 | inactive: -0.02 | inactive: -0.015
7 | NFIC (UniProt P08651) | inactive: 0.094 | inactive: 0.081 | inactive: -0.024 | inactive: -0.054 | inactive: 0.018 | inactive: 0.014 | inactive: 0.068 | inactive: -0.077 | inactive: 0.022 | inactive: 0.01 | inactive: -0.037 | inactive: 0.093 | inactive: -0.054 | inactive: 0.032 | inactive: -0.045 | inactive: -0.038 | inactive: -0.004 | inactive: 0.008 | inactive: 0.047 | inactive: -0.029
8 | NOD1 (UniProt Q9Y239) | inactive: -0.134 | inactive: 0.01 | inactive: 0.239 |  |  |  | inactive: -0.114 | inactive: 0 | inactive: -0.227 |  | inactive: 0.154 | inactive: 0.048 | inactive: -0.038 |  |  | inactive: 0.273 |  |  | inactive: -0.097 | inactive: 0.174
9 | NFATC4 isoform 2 (UniProt Q14934) | inactive: -0.106 | inactive: 0.067 | inactive: 0.029 | inactive: -0.06 |  | inactive: -0.104 | inactive: -0.423 | inactive: -0.053 | inactive: -0.099 | inactive: 0.138 | inactive: -0.322 | inactive: 0.04 | inactive: -0.064 | inactive: -0.039 | inactive: 0.069 | inactive: 0.031 |  | inactive: 0.186 | inactive: -0.26 | inactive: 0.137
10 | NOLC1 isoform 2 (UniProt Q14978) | inactive: -0.007 | inactive: -0.036 |  | inactive: 0.153 | inactive: -0.122 | active: -0.346 | inactive: -0.025 | inactive: -0.089 | inactive: -0.007 | inactive: 0 | inactive: 0.016 | inactive: 0.21 | inactive: 0.015 | inactive: 0.199 | inactive: -0.112 | inactive: -0.093 | inactive: 0.041 | inactive: 0.104 | inactive: 0.052 | inactive: 0.056
11 | NEURL4 (UniProt Q96JN8) | inactive: 0.284 | inactive: 0.435 | inactive: 0.096 |  | inactive: 0.249 | inactive: -0.142 | inactive: -0.392 | inactive: -0.129 | inactive: -0.035 | inactive: 0.139 |  | inactive: 0.088 | inactive: -0.005 | inactive: -0.028 |  |  |  |  |  | 
12 | NEK7 (UniProt Q8TDX7) | inactive: 0.016 | inactive: -0.041 | inactive: -0.07 | inactive: 0.022 | inactive: -0.002 | inactive: 0.003 | inactive: 0.034 | inactive: -0.032 | inactive: 0.043 | inactive: 0.014 | inactive: -0.07 | inactive: 0.011 | inactive: 0.032 | inactive: -0.014 | inactive: -0.05 | inactive: -0.019 | inactive: -0.017 | inactive: -0.029 | inactive: 0 | inactive: -0.067
13 | NOL3 isoform 3 (UniProt O60936) | inactive: -0.011 | inactive: 0 | inactive: 0.198 | inactive: 0.13 |  | inactive: -0.039 | inactive: 0.048 | inactive: 0.017 | inactive: -0.05 | inactive: -0.059 | inactive: -0.12 | inactive: 0.102 | inactive: -0.103 |  | inactive: 0.104 | inactive: 0.043 | inactive: -0.121 | inactive: -0.01 | inactive: 0 | 
14 | NLRC3 isoform 2 (UniProt Q7RTR2) | inactive: -0.002 | inactive: 0.148 | inactive: 0.238 |  | inactive: -0.104 | inactive: 0.107 | inactive: -0.129 | inactive: -0.137 | inactive: 0.066 | inactive: 0.167 | inactive: -0.601 | inactive: 0.059 | inactive: -0.09 | inactive: 0.148 | inactive: 0.387 | inactive: 0.414 | inactive: 0.061 | inactive: 0.344 | inactive: -0.451 | 
15 | NMNAT1 (UniProt Q9HAN9) | inactive: -0.044 | inactive: -0.033 |  | inactive: 0.07 | inactive: -0.121 | inactive: 0.237 | inactive: 0.354 | inactive: 0.02 | inactive: 0.147 | inactive: 0.091 | inactive: -0.168 | inactive: 0.354 | inactive: -0.023 | inactive: 0.154 | inactive: -0.115 | inactive: 0.132 | inactive: -0.022 | inactive: -0.102 | inactive: 0.018 | inactive: -0.014
16 | NEK3 (UniProt P51956) | inactive: 0.022 | inactive: -0.125 |  | inactive: -0.194 | inactive: -0.027 | inactive: -0.182 | inactive: -0.013 | inactive: 0.007 | inactive: 0 | inactive: 0.036 | inactive: 0.058 | inactive: -0.297 | inactive: 0.217 | inactive: 0.116 | inactive: 0.074 | inactive: 0.07 | inactive: 0.086 | inactive: -0.196 | inactive: 0.061 | inactive: 0.161
17 | NSL1 (UniProt Q96IY1) | inactive: 0 | inactive: -0.03 | inactive: -0.112 | inactive: 0.049 | inactive: -0.109 | inactive: -0.107 | inactive: 0.038 | inactive: -0.085 | inactive: -0.102 | inactive: -0.058 | inactive: 0.279 | inactive: -0.117 | inactive: -0.061 | inactive: -0.017 | inactive: 0.103 | inactive: -0.036 | inactive: 0.137 | inactive: -0.086 | inactive: 0.012 | inactive: 0
18 | NMD3 (UniProt Q96D46) | inactive: 0.043 | inactive: 0.02 |  | inactive: 0.07 | inactive: 0.088 | inactive: 0.06 | inactive: -0.181 | inactive: 0.003 | inactive: 0.028 | inactive: -0.052 | inactive: 0.004 | inactive: -0.221 | inactive: 0.008 | inactive: -0.095 | inactive: -0.034 | inactive: 0.108 | inactive: 0.007 | inactive: 0.016 | inactive: 0 | inactive: 0.089

Exported tab-delimited: part of the list above
Row	Target	log2 fold change (saracatinib)	log2 fold change (sotrastaurin)	log2 fold change (alvocidib)	log2 fold change (Tubastatin A)	log2 fold change [1]	log2 fold change (defactinib)	log2 fold change (rucaparib)	log2 fold change [2]	log2 fold change (encorafenib)	log2 fold change [3]	log2 fold change [4]	log2 fold change (filanesib)	log2 fold change (zotarolimus)	log2 fold change (idasanutlin)	log2 fold change (alisertib)	log2 fold change [5]	log2 fold change (gefitinib)	log2 fold change [6]	log2 fold change (lapatinib)	log2 fold change (pictilisib)
9	NFATC4 isoform 2 (UniProt Q14934)	inactive: -0.106	inactive: 0.067	inactive: 0.029	inactive: -0.06		inactive: -0.104	inactive: -0.423	inactive: -0.053	inactive: -0.099	inactive: 0.138	inactive: -0.322	inactive: 0.04	inactive: -0.064	inactive: -0.039	inactive: 0.069	inactive: 0.031		inactive: 0.186	inactive: -0.26	inactive: 0.137
14	NLRC3 isoform 2 (UniProt Q7RTR2)	inactive: -0.002	inactive: 0.148	inactive: 0.238		inactive: -0.104	inactive: 0.107	inactive: -0.129	inactive: -0.137	inactive: 0.066	inactive: 0.167	inactive: -0.601	inactive: 0.059	inactive: -0.09	inactive: 0.148	inactive: 0.387	inactive: 0.414	inactive: 0.061	inactive: 0.344	inactive: -0.451	
